Laboratory results: PubChem BioAssay AID590 (National Center for Advancing Translational Sciences (NCATS), 2007)
Out of some 59,000 compounds screened, about 6,500 (11%) were called active. The shares of active, inactive and inconclusive entries below differ from those in the screen. Cut-off read from the data, not from the text of the source: active = max dye-equivalent concentration above about 10 nM; inconclusive = mostly about 1.1 nM to 9.6 nM; inactive = weaker than that.

experiment: qHTS Assay for Spectroscopic Profiling in A350 Spectral Region; conditions: Compound autofluorescence, 340/450 nm, Alexa 350 dye-equivalents; hits give high values

Compound	max dye-equivalent concentration
O=C(O)c1ccc(C(=O)c2ccccc2)c(C(=O)O)c1	inactive
Nc1nc(C(=O)O)c(N=Nc2ccccc2)c(=O)[nH]1	inactive
COC(=O)c1ccccc1NC(=O)CN(C1CCCCC1)S(C)(=O)=O	inconclusive: 2.8 nM
O=C(C1CCCCC1)N(Cc1ccccc1)c1ccccn1	inconclusive: 1.4 nM
CSc1ccc(Cl)c(C(=O)OCC(=O)N2CC(C)OC(C)C2)c1 (centres undefined)	inconclusive: 3.4 nM
Cn1c(=O)c2c(nc(SCCCO)n2Cc2ccccc2Cl)n(C)c1=O	inconclusive: 1.1 nM
CN1CCN(c2ccnc(-c3ccccc3C(F)(F)F)n2)CC1	inactive
CN1CCN(CC(=O)N2c3ccccc3C(=O)Nc3cccnc32)CC1	inconclusive: 7.5 nM
CN(C)c1ncc2nc(-c3ccc(F)cc3)c(=O)n(CCC#N)c2n1	active: 48 nM
Cc1csc(SCC(=O)N2CCN(S(=O)(=O)c3ccccc3)CC2)n1	inconclusive: 1.2 nM
COc1ccccc1COCC(O)CNCC1(N2CCCCC2)CCCCC1 (centres undefined)	active: 12 nM
CN1CCN(c2ncc3nc(-c4cn(C)c5ccccc45)c(=O)n(CCC#N)c3n2)CC1	inconclusive: 2.3 nM
CC(C)CC(=O)Nc1ccccc1N1CCOCC1	inactive
CCCC(c1nnnn1C1CCCC1)N1CCN(c2ccccc2F)CC1 (centres undefined)	inconclusive: 2 nM
CCOC(=O)C1C(=O)NC(N2CCN(Cc3ccccc3)CC2)=NC1c1ccco1 (centres undefined)	inconclusive: 1.1 nM
O=C(O)CCC(=O)Nc1ccc2ccccc2c1	inactive
COc1cccc(Cn2c(=O)c(-c3cccs3)nc3cnc(N(C)C)nc32)c1	inactive
CCCCNC(=O)Nc1c(C(=O)OCC)[nH]c2ccccc12	inconclusive: 4 nM
COc1cccc(C2/C(=C(/O)c3cnn(-c4ccccc4)c3C)C(=O)C(=O)N2CCN(C)C)c1OC (centres undefined)	inconclusive: 3.3 nM
CCC1Oc2ccc(C)cc2N(CC(=O)NCCN2C(C)CCCC2C)C1=O (centres undefined)	inactive
COc1cc(C2C(C(=O)c3ccc(C)o3)=C(O)C(=O)N2c2cc(C)on2)ccc1O (centres undefined)	inconclusive: 2.7 nM
COc1ccccc1CN1CCC2(CC1)CCN(C(=O)c1c(C)noc1C)CC2	inactive
FC(F)(F)c1cc(-c2ccco2)nc(-n2cnc3ccccc32)n1	active: 15 nM

Compound	max dye-equivalent concentration
Cc1c(C(=O)Nc2ccc3c(c2)OCO3)sc2nc(-c3ccccc3)cn12	inconclusive: 2 nM
O=C(Cc1nc2ccccc2s1)c1ccc(O)cc1O	inconclusive: 2.5 nM
O=C(CSc1nc(-c2ccccc2)cc(=O)[nH]1)NCc1ccc2c(c1)OCO2	inconclusive: 1.6 nM
FC(F)(F)c1ccccc1-c1nc(NCCN2CCOCC2)c2ccccc2n1	inactive
CCOc1cc(C2C(C(=O)N3CCCCC3)=C(C)NC3=C2C(=O)CCC3)cc(Br)c1O (centres undefined)	active: 150 nM
CCCCC(=NCCO)C1=C(O)C(C(=O)OC)C(C)(C)CC1=O (centres undefined)	inconclusive: 2.5 nM
COc1ccc(Cn2c(=O)[nH]c3cc(C(=O)NCCCN4CCCC4=O)ccc3c2=O)cc1	inconclusive: 7.8 nM
O=C1C(Cl)=C(N2CCOCC2)C(=O)N1CCc1ccccc1	inactive
N#CC(C(=O)NCc1ccccc1)c1nc2ccccc2nc1N1CCCC1 (centres undefined)	active: 22 nM
N#Cc1c(-c2ccccc2Cl)cc(C2CC2)nc1N	inconclusive: 3.3 nM
COC(=O)C1Cc2c([nH]c3ccccc23)C(C)N1 (centres undefined)	inconclusive: 2.8 nM
Cn1c(=O)c2ncn(CC(=O)Nc3ccc4c5c(cccc35)CC4)c2n(C)c1=O	inconclusive: 2 nM
Cc1cc(NC(=O)CCCC(=O)N(CC(=O)NC2CCCCC2)c2ccccc2)no1	inconclusive: 3.5 nM
Cn1c(=O)c2sccc2n2c(CCCC(=O)NCc3ccc4c(c3)OCO4)nnc12	inconclusive: 1.3 nM
c1ccc(-c2nc(-c3ccco3)cs2)nc1	active: 70 nM
N#Cc1c(/N=C/c2cccs2)sc2c1CCCCC2	inactive
O=C(O)C1CCN(C(=O)COc2ccc3c4c(c(=O)oc3c2)CCC4)CC1	active: 270 nM
O=C(CN1C(=O)c2cccc3cccc1c23)NCC1CCCO1 (centres undefined)	active: 37 nM
N=C1C(c2nc(-c3ccc(F)cc3)cs2)=C(O)CN1CCCN1CCOCC1	inconclusive: 1.7 nM
Cc1ccc(NC(=O)CCN2CCN(C/C=C/c3ccccc3)CC2)cc1C	inconclusive: 4 nM
O=C(CCc1nc(-c2ccccc2F)no1)NC1CCN(Cc2ccccc2)CC1	inactive
CC(C)(O)C#Cc1ccc(C(=O)N2CCC(C(N)=O)(N3CCCCC3)CC2)cc1	inconclusive: 5.4 nM
C=C[C@@]1(C)C=C2CC[C@@H]3[C@](C)(CCC[C@@]3(C)C(=O)O)[C@H]2CC1	inactive

Compound	max dye-equivalent concentration
COc1cc2cc(CN(CCO)S(=O)(=O)c3ccccc3Cl)c(=O)[nH]c2cc1OC	active: 330 nM
CCOC(=O)c1nn(-c2ccc(OC)cc2)c(=O)c2c(NC(=O)c3ccco3)scc12	inconclusive: 4.7 nM
Cc1noc(C)c1-c1cc(NC2CCNCC2)ncn1	inactive
CCNc1ncc2nc(-c3cn(C)c4ccccc34)c(=O)n(CCC#N)c2n1	inconclusive: 2.7 nM
COc1ccc(NC(=O)CCNC(=O)Cn2ccc3ccccc3c2=O)c(OC)c1	inconclusive: 8.6 nM
NC(=O)c1cnn2c(C(F)(F)F)cc(-c3ccc(F)cc3)nc12	active: 110 nM
Cc1nnc2n(Cc3ccccc3)c(=O)c3c4c(sc3n12)CN(Cc1ccccc1)CC4	inconclusive: 2.2 nM
Fc1ccccc1-c1nc(NCCCN2CCOCC2)c2ccccc2n1	inconclusive: 2.1 nM
CCOC(=O)c1c(CNCCN(CC)CC)n(C)c2cc(Br)c(OC)cc12	inconclusive: 1.7 nM
CCCS(=O)(=O)c1cn2cccc(N)c2c1S(=O)(=O)CCC	inconclusive: 3 nM
COc1cc(NS(C)(=O)=O)c(OC)cc1NC(=O)c1cccc(F)c1	inactive
CN(C)c1ncc2nc(-c3cc(F)cc(F)c3)c(=O)n(Cc3cccs3)c2n1	active: 26 nM
CCOC(=O)c1ccccc1NC(=O)c1ccccc1SC	inconclusive: 1.2 nM
CN(C)c1cccc(C(=O)NC2CCCCCC2)c1	inconclusive: 5.6 nM
Cc1cc(C)c2c(N)c(C(=O)c3ccccc3)oc2n1	inconclusive: 1.2 nM
O=C(OCC#CCSc1nnc(-c2cccc3ccccc23)o1)c1cccs1	inconclusive: 4.9 nM
CCOc1cc(-c2c(C#N)c(N)nc3c2CCCC3)ccc1O	active: 74 nM
CCc1ccccc1NC(=O)CSc1nc2n[nH]c(C)c2c(=N)n1-c1ccc(OC)cc1	inactive
O=C(c1cnn2c(C(F)(F)F)cc(-c3ccc4c(c3)OCO4)nc12)N1CCCCC1	inconclusive: 6.5 nM
COC(=O)c1ccc2c(=O)n(CCC3=CCCCC3)c(SCC(=O)N3CCCC3)nc2c1	inconclusive: 8.6 nM
NC[C@@H]1O[C@H](C23CC4CC(CC(C4)C2)C3)Cc2c1ccc(O)c2O	inconclusive: 6.4 nM
Cc1cccc2[nH]c3c(=O)n(CCN4CCNCC4)cnc3c12	inactive
Nc1nc(-c2cccs2)cs1	active: 14 nM

2 entries drawn at random from the list so far, as already listed:
Compound	max dye-equivalent concentration
Nc1nc(-c2cccs2)cs1	active: 14 nM
CCOC(=O)c1ccccc1NC(=O)c1ccccc1SC	inconclusive: 1.2 nM

Part of the list above in another layout:
Compound,max dye-equivalent concentration
COC(=O)c1ccc2c(=O)n(CCC3=CCCCC3)c(SCC(=O)N3CCCC3)nc2c1,inconclusive: 8.6 nM
NC[C@@H]1O[C@H](C23CC4CC(CC(C4)C2)C3)Cc2c1ccc(O)c2O,inconclusive: 6.4 nM
Cc1cccc2[nH]c3c(=O)n(CCN4CCNCC4)cnc3c12,inactive
Nc1nc(-c2cccs2)cs1,active: 14 nM

Going on with the list.

Compound	max dye-equivalent concentration
CCn1c(CSc2nncn2-c2ccc(OC)cc2)nc2cc(S(=O)(=O)N(C)C)ccc21	inconclusive: 1.4 nM
CCSc1ccccc1C(=O)NCc1ccc2c(c1)OCO2	inactive
COc1ccc(N2CCN(C(=O)CSc3nnc(Cn4nnc5ccccc54)n3C)CC2)cc1	inconclusive: 5.7 nM
Cn1cccc1C(=O)N1CCC[C@@]2(CCN(Cc3nccs3)C2)C1	inactive
COC(=O)n1c(SC)nc2ccccc21	inconclusive: 9.3 nM
Cc1ccc(C(OC(=O)c2ccco2)C(=O)NCc2cccs2)cc1 (centres undefined)	inconclusive: 1.7 nM
O=C(Nc1nccs1)c1nc(-c2ccccc2)n(-c2ccccc2)n1	active: 11 nM
Cc1c(Nc2nc3ccccc3nc2NS(=O)(=O)c2ccccc2)c(=O)n(-c2ccccc2)n1C	inconclusive: 1.4 nM
COc1ccc(N2CCN(C(=O)c3cn(C4CCCC4)c(=O)c4c3c3ccccc3n4C)CC2)cc1	inconclusive: 4.3 nM
COCCCNC(=O)C1CCN(c2nc(C)cc(C)n2)CC1	inactive
OCCOCCNc1ncnc2c1cnn2-c1ccc(Cl)cc1	inconclusive: 9.4 nM
Cc1ccccc1NC(=O)Cn1cnc2c(oc3ccccc32)c1=O	inconclusive: 1.1 nM
CC(C)(CN=C1NS(=O)(=O)c2ccccc21)CNC(=O)CN1C(=O)c2ccccc2C1=O	inactive
CCOC(=O)CSc1nnc(-c2cccs2)n1-c1ccccc1	inconclusive: 5.5 nM
Cc1ccc2[nH]c(=O)c(CN(CCCO)S(=O)(=O)c3c(C)ccc4nsnc34)cc2c1	inactive
Nc1nc(-c2ccccc2)cc(C(F)(F)F)n1	inconclusive: 5.5 nM
Cn1c(=O)[nH]c(=O)c2[nH]c(N(Cc3ccccc3)Cc3ccccc3)nc21	inconclusive: 1.1 nM
Cc1cc(S(=O)(=O)N(Cc2ccccc2)Cc2ccc(N(C)C)cc2)ccc1-n1cnnn1	inactive
Cc1nnc(SCc2ccc(C(=O)c3ccc(Cl)cc3)o2)n1-c1ccccc1	inconclusive: 2.8 nM
Cc1ccc(C)c(NC(=O)c2ccccc2O)c1	inconclusive: 4.2 nM
